Assay results: US20040259770A1, “Method for determining leukocyte activation” (Rush University Medical Center, priority 2003, published 2004)

System: lactoferrin receptors on eosinophils
Assay: Binding of 125I-labeled lactoferrin by eosinophils, Scatchard analysis
Set-up: species or system human
Conditions: three experiments
Procedure: Lactoferrin (100 micrograms) was radioiodinated using IODO-GEN iodination reagent (Pierce; Rockford, Ill.) according to the procedure supplied by the manufacturer. The lactoferrin was incubated with 400 micro Curies Na^125I (PerkinElmer Life Sciences; Boston, Mass.) for 3 min, and the ^125I-labeled lactoferrin was separated from free Na^125I by chromatography through a 5-ml D-Salt dextran desalting column (Pierce) using PBS as the elution buffer. Protein concentration of the ^125I-labeled lactoferrin was measured by the BCA assay (Pierce). Specific activity of the ^125I-labeled lactoferrin was 34,800 cpm/pmole. […] Binding of ^125I-labeled lactoferrin by eosinophils was determined using a modification of previously described protocols for eosinophils. Motegi et al. J. Immunol. […] In some experiments as indicated, binding was measured in the presence of excess unlabeled transferrin. […] The supernatant was removed by careful aspiration, and after quick-freezing on dry ice the tip of the tube containing the cell pellet was excised and the radioactivity was measured by gamma counting (Beckman Coulter Gamma 5500B). Specific binding was determined as the difference between total binding and binding in the presence of the excess unlabeled lactoferrin. Binding constants were determined by Scatchard analysis (Scatchard, G., Ann. N.Y. Acad. Sci. 51:660 (1949)).

B1: ^125I-labeled lactoferrin: lactoferrin radioiodinated with IODO-GEN reagent, 34,800 cpm/pmole (protein, UniProt P02788 20-710, looked up)
Lactotransferrin: GRRRSVQWCAVSQPEATKCFQWQRNMRKVRGPPVSCIKRDSPIQCIQAIAENRADAVTLDGGFIYEAGLAPYKLRPVAAEVYGTERQPRTHYYAVAVVKKGGSFQLNELQGLKSCHTGLRRTAGWNVPIGTLRPFLNWTGPPEPIEAAVARFFSASCVPGADKGQFPNLCRLCAGTGENKCAFSSQEPYFSYSGAFKCLRDGAGDVAFIRESTVFEDLSDEAERDEYELLCPDNTRKPVDKFKDCHLARVPSHAVVARSVNGKEDAIWNLLRQAQEKFGKDKSPKFQLFGSPSGQKDLLFKDSAIGFSRVPPRIDSGLYLGSGYFTAIQNLRKSEEEVAARRARVVWCAVGEQELRKCNQWSGLSEGSVTCSSASTTEDCIALVLKGEADAMSLDGGYVYTAGKCGLVPVLAENYKSQQSSDPDPNCVDRPVEGYLAVAVVRRSDTSLTWNSVKGKKSCHTAVDRTAGWNIPMGLLFNQTGSCKFDEYFSQSCAPGSDPRSNLCALCIGDEQGENKCVPNSNERYYGYTGAFRCLAENAGDVAFVKDVTVLQNTDGNNNEAWAKDLKLADFALLCLDGKRKPVTEARSCHLAMAPNHAVVSRMDKVERLKQVLLHQQAKFGRNGSDCPDKFCLFQSETKNLLFNDNTECLARLHGKTTYEKYLGPQYVAGITNLKKCSTSPLLEACEFLRK
modifications: 125I label
notes: lactoferrin radioiodinated with IODO-GEN reagent, 34,800 cpm/pmole
receptor population, first class of receptors: approximately 78,000+/−13,000 per eosinophil
receptor population, second class of receptors: ≤ 620,000 molecules per eosinophil
